From the supplement of paper PMC10849652
The other results are listed elsewhere or left out.

Sequences of proteins named here, by UniProt entry; tags and fusion partners are left off. A change or cut given only in a name is not applied to a line headed by its entry.
UniProt Q6IPR1: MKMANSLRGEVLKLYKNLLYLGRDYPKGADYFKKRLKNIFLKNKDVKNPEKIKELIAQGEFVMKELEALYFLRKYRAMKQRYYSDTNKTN
UniProt Q9NPD3, whole entry, looked up: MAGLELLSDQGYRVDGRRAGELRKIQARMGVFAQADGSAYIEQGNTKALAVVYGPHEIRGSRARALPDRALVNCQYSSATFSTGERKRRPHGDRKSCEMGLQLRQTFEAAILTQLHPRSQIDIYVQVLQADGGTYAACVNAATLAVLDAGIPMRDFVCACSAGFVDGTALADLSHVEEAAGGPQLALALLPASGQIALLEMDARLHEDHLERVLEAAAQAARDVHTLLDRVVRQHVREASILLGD
UniProt Q9BSJ8: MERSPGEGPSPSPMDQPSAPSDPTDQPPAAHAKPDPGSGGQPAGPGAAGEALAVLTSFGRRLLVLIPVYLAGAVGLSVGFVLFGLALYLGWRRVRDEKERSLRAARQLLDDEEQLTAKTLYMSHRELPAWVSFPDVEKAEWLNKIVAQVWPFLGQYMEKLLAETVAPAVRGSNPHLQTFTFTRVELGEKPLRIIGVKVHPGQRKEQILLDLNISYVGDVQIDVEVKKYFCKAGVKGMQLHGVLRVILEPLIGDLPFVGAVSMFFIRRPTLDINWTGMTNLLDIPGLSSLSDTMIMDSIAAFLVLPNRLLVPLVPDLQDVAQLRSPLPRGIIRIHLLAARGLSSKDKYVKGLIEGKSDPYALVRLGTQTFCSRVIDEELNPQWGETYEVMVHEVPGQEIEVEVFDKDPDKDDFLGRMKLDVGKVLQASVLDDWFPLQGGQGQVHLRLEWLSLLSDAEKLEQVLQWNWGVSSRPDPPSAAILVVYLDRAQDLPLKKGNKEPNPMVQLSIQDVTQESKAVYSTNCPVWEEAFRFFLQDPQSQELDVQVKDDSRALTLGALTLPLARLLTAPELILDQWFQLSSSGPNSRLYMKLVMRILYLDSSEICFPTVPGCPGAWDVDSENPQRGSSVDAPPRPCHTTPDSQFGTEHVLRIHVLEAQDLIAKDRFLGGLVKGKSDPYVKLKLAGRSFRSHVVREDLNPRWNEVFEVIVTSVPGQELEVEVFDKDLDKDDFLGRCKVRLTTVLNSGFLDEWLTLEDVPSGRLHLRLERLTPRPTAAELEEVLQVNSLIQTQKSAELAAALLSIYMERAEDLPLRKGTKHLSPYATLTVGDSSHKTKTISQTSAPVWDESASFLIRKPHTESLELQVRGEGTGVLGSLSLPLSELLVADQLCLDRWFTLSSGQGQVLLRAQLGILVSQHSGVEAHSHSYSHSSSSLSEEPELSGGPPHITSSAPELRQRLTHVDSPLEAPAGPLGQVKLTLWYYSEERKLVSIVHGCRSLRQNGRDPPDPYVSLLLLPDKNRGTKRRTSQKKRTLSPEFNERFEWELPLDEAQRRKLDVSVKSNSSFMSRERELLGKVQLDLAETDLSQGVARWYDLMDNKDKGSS
UniProt Q9UF33: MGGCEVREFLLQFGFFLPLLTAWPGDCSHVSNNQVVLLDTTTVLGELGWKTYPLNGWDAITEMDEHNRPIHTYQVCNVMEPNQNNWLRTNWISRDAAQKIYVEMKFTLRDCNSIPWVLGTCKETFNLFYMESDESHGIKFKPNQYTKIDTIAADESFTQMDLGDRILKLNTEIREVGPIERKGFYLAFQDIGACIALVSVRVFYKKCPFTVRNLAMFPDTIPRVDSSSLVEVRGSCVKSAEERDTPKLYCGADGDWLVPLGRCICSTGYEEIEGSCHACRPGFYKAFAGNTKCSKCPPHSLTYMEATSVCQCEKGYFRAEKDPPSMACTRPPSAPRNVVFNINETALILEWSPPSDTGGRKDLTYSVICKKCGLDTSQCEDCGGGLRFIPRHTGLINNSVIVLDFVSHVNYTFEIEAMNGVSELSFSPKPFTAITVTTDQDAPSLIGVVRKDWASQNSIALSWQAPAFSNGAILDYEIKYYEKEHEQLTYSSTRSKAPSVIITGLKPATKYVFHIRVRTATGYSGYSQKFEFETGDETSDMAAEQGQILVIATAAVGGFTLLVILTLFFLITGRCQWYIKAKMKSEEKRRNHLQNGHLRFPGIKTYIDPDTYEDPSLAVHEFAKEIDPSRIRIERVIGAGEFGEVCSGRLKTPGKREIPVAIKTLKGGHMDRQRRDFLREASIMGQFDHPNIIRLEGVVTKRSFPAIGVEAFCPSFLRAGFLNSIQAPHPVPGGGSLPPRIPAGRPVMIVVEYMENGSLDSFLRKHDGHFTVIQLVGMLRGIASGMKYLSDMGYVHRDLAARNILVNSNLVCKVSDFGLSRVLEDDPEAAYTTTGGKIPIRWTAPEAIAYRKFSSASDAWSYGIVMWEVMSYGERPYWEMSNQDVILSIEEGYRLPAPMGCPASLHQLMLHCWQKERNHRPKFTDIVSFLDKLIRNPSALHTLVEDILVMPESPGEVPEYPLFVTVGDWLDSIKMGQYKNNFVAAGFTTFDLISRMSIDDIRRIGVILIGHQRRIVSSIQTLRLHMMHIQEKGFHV
UniProt Q86YB8: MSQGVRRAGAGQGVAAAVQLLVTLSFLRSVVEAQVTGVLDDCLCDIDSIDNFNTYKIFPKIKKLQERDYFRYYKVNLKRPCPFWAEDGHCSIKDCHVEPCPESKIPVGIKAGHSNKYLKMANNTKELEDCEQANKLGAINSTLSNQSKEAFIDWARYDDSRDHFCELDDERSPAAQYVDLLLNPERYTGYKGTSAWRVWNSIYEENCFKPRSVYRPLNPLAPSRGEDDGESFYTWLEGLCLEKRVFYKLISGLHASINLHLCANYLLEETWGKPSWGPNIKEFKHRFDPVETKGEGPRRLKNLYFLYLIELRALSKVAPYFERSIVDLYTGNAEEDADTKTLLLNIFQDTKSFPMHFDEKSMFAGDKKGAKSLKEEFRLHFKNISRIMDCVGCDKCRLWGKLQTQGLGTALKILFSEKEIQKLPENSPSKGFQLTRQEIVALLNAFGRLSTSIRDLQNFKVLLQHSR
UniProt Q9HBU6: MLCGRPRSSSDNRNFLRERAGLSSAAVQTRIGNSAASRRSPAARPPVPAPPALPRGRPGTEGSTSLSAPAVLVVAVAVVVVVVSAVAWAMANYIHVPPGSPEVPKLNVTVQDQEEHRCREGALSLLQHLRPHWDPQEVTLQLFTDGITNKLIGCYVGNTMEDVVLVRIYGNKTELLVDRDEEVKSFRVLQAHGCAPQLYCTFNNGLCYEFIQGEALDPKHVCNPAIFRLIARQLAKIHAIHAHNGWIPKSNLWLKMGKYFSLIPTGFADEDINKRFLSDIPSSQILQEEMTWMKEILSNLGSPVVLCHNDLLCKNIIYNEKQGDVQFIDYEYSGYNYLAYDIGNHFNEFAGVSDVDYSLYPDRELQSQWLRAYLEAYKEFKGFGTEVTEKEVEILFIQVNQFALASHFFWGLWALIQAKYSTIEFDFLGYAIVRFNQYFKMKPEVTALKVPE
UniProt O94905: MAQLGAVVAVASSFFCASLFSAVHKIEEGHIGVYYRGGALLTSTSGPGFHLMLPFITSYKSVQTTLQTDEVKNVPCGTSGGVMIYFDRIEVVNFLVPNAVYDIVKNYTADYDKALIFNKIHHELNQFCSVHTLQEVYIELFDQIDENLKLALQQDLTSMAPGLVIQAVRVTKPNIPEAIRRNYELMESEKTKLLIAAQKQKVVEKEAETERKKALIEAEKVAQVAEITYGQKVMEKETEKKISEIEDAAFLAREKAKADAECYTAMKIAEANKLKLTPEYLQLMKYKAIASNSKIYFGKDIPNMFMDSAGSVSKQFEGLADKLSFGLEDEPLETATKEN
UniProt Q14674: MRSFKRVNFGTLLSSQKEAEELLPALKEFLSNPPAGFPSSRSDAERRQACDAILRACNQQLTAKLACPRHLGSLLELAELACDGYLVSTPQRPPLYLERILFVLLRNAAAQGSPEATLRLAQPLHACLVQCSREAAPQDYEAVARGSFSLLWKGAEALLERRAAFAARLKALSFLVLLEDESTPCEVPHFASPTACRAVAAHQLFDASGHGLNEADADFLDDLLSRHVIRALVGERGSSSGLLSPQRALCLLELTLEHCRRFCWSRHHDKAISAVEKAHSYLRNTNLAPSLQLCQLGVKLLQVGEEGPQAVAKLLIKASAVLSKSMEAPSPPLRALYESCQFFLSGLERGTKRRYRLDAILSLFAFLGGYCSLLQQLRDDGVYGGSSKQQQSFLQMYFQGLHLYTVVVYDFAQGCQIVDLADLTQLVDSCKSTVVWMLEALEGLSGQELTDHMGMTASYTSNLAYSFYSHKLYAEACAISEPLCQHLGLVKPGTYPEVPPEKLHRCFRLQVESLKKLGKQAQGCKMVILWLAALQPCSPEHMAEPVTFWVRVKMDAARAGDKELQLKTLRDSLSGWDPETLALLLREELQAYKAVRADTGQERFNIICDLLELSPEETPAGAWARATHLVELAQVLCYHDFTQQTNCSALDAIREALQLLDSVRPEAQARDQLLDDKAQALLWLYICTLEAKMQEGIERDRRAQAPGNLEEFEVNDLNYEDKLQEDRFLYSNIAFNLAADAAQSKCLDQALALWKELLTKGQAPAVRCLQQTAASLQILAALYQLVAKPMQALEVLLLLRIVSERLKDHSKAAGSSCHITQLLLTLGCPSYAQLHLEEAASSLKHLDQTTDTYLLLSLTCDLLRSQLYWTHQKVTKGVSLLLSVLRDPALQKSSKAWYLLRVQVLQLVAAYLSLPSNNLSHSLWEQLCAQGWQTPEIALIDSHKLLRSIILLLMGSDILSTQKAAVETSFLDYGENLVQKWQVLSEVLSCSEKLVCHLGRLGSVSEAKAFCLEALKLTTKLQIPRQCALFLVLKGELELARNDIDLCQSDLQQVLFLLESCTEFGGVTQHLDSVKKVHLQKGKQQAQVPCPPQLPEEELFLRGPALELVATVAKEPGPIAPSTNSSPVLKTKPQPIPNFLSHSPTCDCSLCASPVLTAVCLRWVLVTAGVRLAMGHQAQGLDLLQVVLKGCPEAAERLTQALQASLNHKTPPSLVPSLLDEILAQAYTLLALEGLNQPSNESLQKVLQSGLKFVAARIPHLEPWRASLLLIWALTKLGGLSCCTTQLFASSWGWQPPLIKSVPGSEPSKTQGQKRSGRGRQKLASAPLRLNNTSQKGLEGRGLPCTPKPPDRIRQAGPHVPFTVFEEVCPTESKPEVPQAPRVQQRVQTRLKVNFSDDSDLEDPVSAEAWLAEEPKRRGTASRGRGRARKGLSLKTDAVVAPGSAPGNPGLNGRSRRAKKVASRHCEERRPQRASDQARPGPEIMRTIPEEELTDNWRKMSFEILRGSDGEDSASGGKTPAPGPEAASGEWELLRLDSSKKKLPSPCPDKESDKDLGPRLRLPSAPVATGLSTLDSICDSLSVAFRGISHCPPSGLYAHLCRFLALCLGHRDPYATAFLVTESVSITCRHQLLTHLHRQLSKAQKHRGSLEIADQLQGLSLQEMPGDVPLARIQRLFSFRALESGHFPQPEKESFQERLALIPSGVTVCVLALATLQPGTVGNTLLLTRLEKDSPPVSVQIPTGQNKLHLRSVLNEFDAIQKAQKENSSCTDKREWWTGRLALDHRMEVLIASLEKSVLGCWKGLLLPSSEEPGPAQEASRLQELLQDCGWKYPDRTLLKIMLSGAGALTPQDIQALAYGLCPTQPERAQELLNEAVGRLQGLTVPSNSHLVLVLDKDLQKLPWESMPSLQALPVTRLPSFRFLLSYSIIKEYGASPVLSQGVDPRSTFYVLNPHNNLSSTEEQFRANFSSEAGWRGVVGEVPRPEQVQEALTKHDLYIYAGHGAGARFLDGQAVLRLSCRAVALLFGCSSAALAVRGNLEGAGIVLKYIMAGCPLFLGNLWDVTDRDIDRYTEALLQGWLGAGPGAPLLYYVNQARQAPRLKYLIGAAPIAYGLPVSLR
UniProt P34913, whole entry, looked up: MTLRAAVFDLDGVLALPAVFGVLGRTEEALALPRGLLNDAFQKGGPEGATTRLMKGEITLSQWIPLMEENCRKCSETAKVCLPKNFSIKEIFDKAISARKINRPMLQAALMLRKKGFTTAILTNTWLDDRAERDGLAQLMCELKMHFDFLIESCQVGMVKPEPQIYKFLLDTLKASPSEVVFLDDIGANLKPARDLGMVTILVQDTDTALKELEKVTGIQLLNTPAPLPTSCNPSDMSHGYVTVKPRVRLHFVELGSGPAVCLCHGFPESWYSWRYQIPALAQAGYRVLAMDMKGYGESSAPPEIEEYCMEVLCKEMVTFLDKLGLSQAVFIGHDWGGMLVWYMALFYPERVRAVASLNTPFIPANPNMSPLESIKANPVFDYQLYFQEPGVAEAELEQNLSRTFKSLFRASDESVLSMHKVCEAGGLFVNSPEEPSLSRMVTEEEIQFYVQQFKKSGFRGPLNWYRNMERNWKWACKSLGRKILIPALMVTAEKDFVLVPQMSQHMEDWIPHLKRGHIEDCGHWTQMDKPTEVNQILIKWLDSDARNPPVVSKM
UniProt Q9UKR5: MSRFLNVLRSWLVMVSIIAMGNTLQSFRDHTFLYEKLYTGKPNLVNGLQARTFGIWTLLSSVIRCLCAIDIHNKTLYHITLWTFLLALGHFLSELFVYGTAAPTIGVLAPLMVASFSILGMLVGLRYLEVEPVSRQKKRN

Columns and labels:
Assay in all cases: log2 fold change, soluble protein after heating vs DMSO (PISA); higher = thermal stabilisation; K562 cells, 10 uM, 30 min; active = over 0.2 and 3.5 SD of the protein, either way, in both replicates (recomputed)
[1] = compound: COC1=CC=C(C=C1)CN2C=CC3=C2C=C(C=C3)C(=O)NO
Summary of the method: (§1)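 Thermal stability values are relative to control samples and come from duplicates. They are expressed as log2 fold changes. For measurement, K562 cells (2×10^6 cells/mL) received 10 μM compound for 30 min, and aliquots were heated for 3 min over 48°C-58°C, pooled, and extracted at 4°C in PBS with 0.5% NP-40. Soluble protein, the supernatant after 21,000xg for 90 min, was quantified by TMTpro 16plex LC-MS/MS with equalised channel sums.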

[2] = compound: CON(C)C(=O)N1N=C(c2cc(F)ccc2F)S[C@@]1(CCCN)c1ccccc1 [filanesib]
Summary of the method: as §1

[3] = compound: CO[C@H]1C[C@@H]2CC[C@@H](C)[C@@](O)(O2)C(=O)C(=O)N2CCCC[C@H]2C(=O)O[C@H]([C@H](C)C[C@@H]2CC[C@H](n3cnnn3)[C@H](OC)C2)CC(=O)[C@H](C)/C=C(\C)[C@@H](O)[C@@H](OC)C(=O)[C@H](C)C[C@H](C)/C=C/C=C/C=C/1C [zotarolimus]
Summary of the method: as §1

[4] = compound: COc1cc(C(=O)O)ccc1NC(=O)[C@@H]1N[C@@H](CC(C)(C)C)[C@](C#N)(c2ccc(Cl)cc2F)[C@H]1c1cccc(Cl)c1F [idasanutlin]
Summary of the method: as §1

[5] = compound: COc1cc(Nc2ncc3c(n2)-c2ccc(Cl)cc2C(c2c(F)cccc2OC)=NC3)ccc1C(=O)O [alisertib]
Summary of the method: as §1

[6] = compound: COc1cc2nc(-c3cc(F)ccc3O)nc(N[C@@H]3CNC[C@H]3C(C)(C)O)c2cc1OC
Summary of the method: as §1

[7] = compound: COc1cc2ncnc(Nc3ccc(F)c(Cl)c3)c2cc1OCCCN1CCOCC1 [gefitinib]
Summary of the method: as §1

[8] = compound: COc1cccc2cc(-c3nc([C@H]4CC[C@H](C(=O)O)CC4)n4ncnc(N)c34)[nH]c12
Summary of the method: as §1

[9] = compound: CS(=O)(=O)CCNCc1ccc(-c2ccc3ncnc(Nc4ccc(OCc5cccc(F)c5)c(Cl)c4)c3c2)o1 [lapatinib]
Summary of the method: as §1

[10] = compound: CS(=O)(=O)N1CCN(Cc2cc3nc(-c4cccc5[nH]ncc45)nc(N4CCOCC4)c3s2)CC1 [pictilisib]
Summary of the method: as §1

[11] = compound: CS(=O)(=O)c1ccc(-c2cnc(N)c(C(=O)Nc3ccccc3)n2)cc1
Summary of the method: as §1

[12] = compound: C[C@@H](Oc1cc(-c2cnn(C3CCNCC3)c2)cnc1N)c1c(Cl)ccc(F)c1Cl [crizotinib]
Summary of the method: as §1

[13] = compound: C[C@@H]1COCCN1C2=NC(=NC(=C2)C3(CC3)S(=O)(=O)C)C4=C5C=CNC5=CC=C4
Summary of the method: as §1

[14] = compound: C[C@H](C1=CC=C(C=C1)C(=O)NC2=C3C=CNC3=NC=C2)N
Summary of the method: as §1

[15] = compound: C[C@H](Nc1ncnc2nc[nH]c12)c1cc2cccc(Cl)c2c(=O)n1-c1ccccc1 [duvelisib]
Summary of the method: as §1

[16] = compound: Cc1cc(Nc2cc(CN3CCOCC3)c3nc(C)c(Cc4ccc(Cl)cc4F)n3n2)n[nH]1 [gandotinib]
Summary of the method: as §1

[17] = compound: Cc1cc(Nc2cc(N3CCN(C)CC3)nc(Sc3ccc(NC(=O)C4CC4)cc3)n2)n[nH]1 [tozasertib]
Summary of the method: as §1

[18] = compound: Cc1cc(SCc2sc(-c3ccc(C(F)(F)F)cc3)nc2C)ccc1OCC(=O)O
Summary of the method: as §1

[19] = compound: Cc1ccc(-n2nc(C(C)(C)C)cc2NC(=O)Nc2ccc(OCCN3CCOCC3)c3ccccc23)cc1 [doramapimod]
Summary of the method: as §1

[20] = compound: Cc1ccc(C(=O)N(CCCN)[C@@H](c2nc3cc(Cl)ccc3c(=O)n2Cc2ccccc2)C(C)C)cc1 [ispinesib]
Summary of the method: as §1

Measured: log2 fold change

ETFRF1 (UniProt Q6IPR1)
inactive: [1] -0.008 | [2] 0.027 | [3] -0.229 | [4] -0.262 | [5] -0.164 | [6] -0.014 | [7] 0.063 | [8] 0.093 | [9] 0.011 | [10] 0.035 | [11] 0.104 | [12] 0.113 | [13] 0.035 | [14] -0.083 | [15] -0.022 | [16] 0.027 | [17] 0.074 | [18] -0.131 | [19] -0.053 | [20] 0.024

ERBIN isoform 8 (UniProt Q96RT1)
inactive: [1] 0.045 | [2] -0.02 | [3] -0.001 | [4] -0.034 | [5] -0.057 | [6] 0.157 | [7] 0.038 | [8] 0.056 | [9] -0.033 | [10] -0.061 | [11] -0.009 | [12] 0.011 | [13] 0.038 | [14] -0.023 | [15] 0.068 | [16] -0.137 | [17] -0.049 | [18] 0.034 | [19] 0.009 | [20] -0.037

EXOSC4 (UniProt Q9NPD3)
inactive: [1] -0.034 | [2] -0.016 | [3] -0.024 | [4] -0.029 | [5] -0.125 | [6] -0.053 | [7] -0.001 | [8] 0.053 | [9] 0.118 | [10] -0.051 | [11] -0.026 | [12] 0.01 | [13] -0.004 | [14] -0.004 | [15] 0.002 | [16] -0.016 | [17] -0.016 | [18] 0.003 | [19] -0.011 | [20] 0.074

EXOSC5 (UniProt Q9NQT4)
inactive: [1] 0.023 | [2] -0.019 | [3] 0.013 | [4] 0 | [5] -0.036 | [6] -0.001 | [7] 0.006 | [8] 0.009 | [9] -0.041 | [10] 0.018 | [11] -0.031 | [12] 0.048 | [13] -0.036 | [14] -0.022 | [15] 0.036 | [16] -0.002 | [17] 0.034 | [18] -0.016 | [19] -0.01 | [20] 0.045

EVC2 (UniProt Q86UK5)
inactive: [1] -0.073 | [2] -0.142 | [3] -0.039 | [4] 0.053 | [5] -0.066 | [6] -0.146 | [7] 0.09 | [8] 0.016 | [9] -0.224 | [10] -0.194 | [11] 0.022 | [12] -0.061 | [13] -0.244 | [14] -0.209 | [16] 0.071 | [18] -0.052 | [19] 0 | [20] 0.065

ESYT1 isoform 2 (UniProt Q9BSJ8)
inactive: [1] 0.042 | [2] 0.013 | [3] 0.08 | [4] 0.08 | [5] -0.094 | [6] 0.008 | [7] 0.053 | [8] -0.122 | [9] 0.089 | [10] -0.038 | [11] 0.021 | [12] -0.134 | [13] -0.076 | [14] 0.069 | [16] 0.024 | [18] 0.11 | [19] 0.083 | [20] -0.265

EPHA6 (UniProt Q9UF33)
inactive: [1] -0.597 | [2] 0.396 | [3] -0.292 | [4] 0.206 | [5] 0.077 | [6] 0.325 | [7] 0.1 | [8] 0.29 | [9] -0.846 | [11] 0.196 | [12] 0.324 | [13] -0.002 | [14] 0.524 | [15] 0.089 | [17] -0.113 | [18] -0.017 | [19] 0.288 | [20] -0.517

ERO1B (UniProt Q86YB8)
inactive: [1] -0.105 | [2] 0.043 | [3] -0.004 | [4] 0.109 | [5] -0.014 | [6] -0.058 | [7] 0.056 | [8] 0.024 | [9] 0.186 | [11] 0.009 | [12] 0.034 | [13] 0.019 | [14] 0.215 | [15] -0.212 | [18] 0.116 | [19] 0.076

ETNK1 (UniProt Q9HBU6)
inactive: [1] -0.083 | [2] -0.172 | [3] 0.016 | [4] -0.105 | [5] -0.045 | [6] 0.013 | [7] -0.02 | [8] 0.01 | [9] 0.078 | [10] -0.044 | [11] -0.006 | [12] -0.022 | [13] 0.088 | [14] -0.032 | [16] -0.057 | [18] 0.118 | [19] 0.001 | [20] 0.059

ERLIN2 (UniProt O94905)
active: [20] -0.251
inactive: [1] -0.006 | [2] 0.039 | [3] 0.034 | [4] 0.09 | [5] -0.085 | [6] -0.143 | [7] -0.058 | [8] -0.076 | [9] -0.019 | [10] -0.09 | [11] -0.017 | [12] -0.034 | [13] -0.167 | [14] 0.068 | [16] -0.044 | [18] 0.155 | [19] 0.057

FADS1, A0A0A0MR51
active: [1] -0.31 | [16] 0.434 | [20] -0.252
inactive: [2] -0.112 | [3] -0.004 | [4] 0.055 | [5] -0.007 | [6] -0.111 | [7] 0.049 | [8] 0.009 | [9] 0.044 | [10] -0.092 | [11] 0.096 | [12] -0.049 | [13] -0.019 | [14] -0.026 | [18] -0.007 | [19] 0

Reprinted from the listing (3 entries):
EVC2 (UniProt Q86UK5)
inactive: [1] -0.073 | [2] -0.142 | [3] -0.039 | [4] 0.053 | [5] -0.066 | [6] -0.146 | [7] 0.09 | [8] 0.016 | [9] -0.224 | [10] -0.194 | [11] 0.022 | [12] -0.061 | [13] -0.244 | [14] -0.209 | [16] 0.071 | [18] -0.052 | [19] 0 | [20] 0.065

ESYT1 isoform 2 (UniProt Q9BSJ8)
inactive: [1] 0.042 | [2] 0.013 | [3] 0.08 | [4] 0.08 | [5] -0.094 | [6] 0.008 | [7] 0.053 | [8] -0.122 | [9] 0.089 | [10] -0.038 | [11] 0.021 | [12] -0.134 | [13] -0.076 | [14] 0.069 | [16] 0.024 | [18] 0.11 | [19] 0.083 | [20] -0.265

EPHA6 (UniProt Q9UF33)
inactive: [1] -0.597 | [2] 0.396 | [3] -0.292 | [4] 0.206 | [5] 0.077 | [6] 0.325 | [7] 0.1 | [8] 0.29 | [9] -0.846 | [11] 0.196 | [12] 0.324 | [13] -0.002 | [14] 0.524 | [15] 0.089 | [17] -0.113 | [18] -0.017 | [19] 0.288 | [20] -0.517

(listing goes on)

EXOC6 (UniProt Q8TAG9)
inactive: [1] -0.021 | [2] 0.017 | [3] 0.151 | [4] -0.058 | [5] -0.013 | [6] 0.119 | [7] -0.037 | [8] -0.101 | [9] -0.052 | [10] -0.003 | [11] 0.001 | [12] -0.206 | [13] -0.038 | [14] 0.033 | [16] -0.098 | [18] 0.1 | [19] 0.02
active: [20] -0.363

FAM118B (UniProt Q9BPY3)
inactive: [1] 0.028 | [2] -0.196 | [3] 0.011 | [4] -0.034 | [5] -0.049 | [6] 0.017 | [7] 0.031 | [8] 0.129 | [9] 0.018 | [10] 0.099 | [11] 0.099 | [12] -0.169 | [13] -0.007 | [14] 0.107 | [16] -0.101 | [19] -0.003 | [20] 0.046

ESPL1 (UniProt Q14674)
inactive: [1] -0.198 | [2] 0.043 | [3] -0.106 | [4] -0.171 | [5] -0.344 | [6] 0.198 | [7] -0.048 | [8] 0.378 | [9] -0.038 | [10] 0.122 | [11] 0.153 | [12] -0.054 | [13] -0.228 | [14] 0.123 | [16] -0.069 | [19] -0.021 | [20] -0.167

EPHX2 (UniProt P34913)
inactive: [1] -0.019 | [2] -0.096 | [3] -0.017 | [4] -0.089 | [5] -0.053 | [6] -0.009 | [7] 0 | [8] 0.055 | [9] -0.041 | [10] 0.062 | [11] 0.036 | [12] 0.169 | [13] 0.194 | [14] -0.019 | [16] -0.018 | [18] -0.032 | [19] -0.016 | [20] -0.01

ERG28 (UniProt Q9UKR5)
inactive: [1] -0.12 | [2] -0.004 | [3] 0.142 | [4] 0.036 | [5] -0.229 | [6] -0.01 | [7] 0.097 | [8] -0.005 | [9] 0.024 | [11] -0.034 | [12] 0.119 | [13] -0.033 | [14] -0.087 | [17] -0.091 | [19] 0.037 | [20] 0.025

F5 (UniProt P12259)
active: [4] 0.613
inactive: [1] -0.032 | [2] -0.05 | [3] -0.051 | [5] -0.074 | [6] -0.089 | [7] 0.026 | [8] 0.059 | [9] 0.034 | [10] 0.074 | [11] 0.081 | [12] 0.257 | [13] -0.064 | [14] 0.057 | [16] 0.023 | [18] 0.223 | [19] 0.019 | [20] 0.055
